# Reference: paper doi:10.1101/2020.02.10.941757
# The chains behind the UniProt entries cited, without tags or fusion partners.
# UniProt Q15436: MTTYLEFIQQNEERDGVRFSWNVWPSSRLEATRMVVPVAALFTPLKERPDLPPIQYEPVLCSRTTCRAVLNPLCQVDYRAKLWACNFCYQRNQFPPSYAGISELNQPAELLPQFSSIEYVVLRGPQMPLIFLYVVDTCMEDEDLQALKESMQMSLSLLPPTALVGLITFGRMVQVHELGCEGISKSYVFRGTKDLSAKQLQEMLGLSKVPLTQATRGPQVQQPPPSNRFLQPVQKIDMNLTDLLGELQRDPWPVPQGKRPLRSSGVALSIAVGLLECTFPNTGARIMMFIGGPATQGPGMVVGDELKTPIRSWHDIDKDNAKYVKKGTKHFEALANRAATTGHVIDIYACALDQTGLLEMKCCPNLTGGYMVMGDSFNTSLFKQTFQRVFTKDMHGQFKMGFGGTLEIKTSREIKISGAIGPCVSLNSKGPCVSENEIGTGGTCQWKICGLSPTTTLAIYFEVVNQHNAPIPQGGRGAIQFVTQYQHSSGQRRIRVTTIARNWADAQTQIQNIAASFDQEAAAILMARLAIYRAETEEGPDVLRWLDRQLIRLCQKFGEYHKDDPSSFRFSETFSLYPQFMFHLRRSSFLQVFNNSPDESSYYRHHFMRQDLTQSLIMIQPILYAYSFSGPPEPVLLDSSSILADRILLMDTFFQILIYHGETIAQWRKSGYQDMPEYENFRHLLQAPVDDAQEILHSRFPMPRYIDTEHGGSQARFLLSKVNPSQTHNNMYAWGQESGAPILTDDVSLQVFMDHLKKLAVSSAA
# These are yes or no findings as the source states them, for the method shown. Binding seen in cells or lysates may run through a third protein. Some results given as binding are weak or reduced against the parent protein; the word gives no strength. Where a sequence is shown, tags or fusion partners need not be part of it.
# Target: T1, GFP-tagged wildtype DYRK3 (GFP-DYRK3 (WT)) (UniProt O43781)
# T1 sequence: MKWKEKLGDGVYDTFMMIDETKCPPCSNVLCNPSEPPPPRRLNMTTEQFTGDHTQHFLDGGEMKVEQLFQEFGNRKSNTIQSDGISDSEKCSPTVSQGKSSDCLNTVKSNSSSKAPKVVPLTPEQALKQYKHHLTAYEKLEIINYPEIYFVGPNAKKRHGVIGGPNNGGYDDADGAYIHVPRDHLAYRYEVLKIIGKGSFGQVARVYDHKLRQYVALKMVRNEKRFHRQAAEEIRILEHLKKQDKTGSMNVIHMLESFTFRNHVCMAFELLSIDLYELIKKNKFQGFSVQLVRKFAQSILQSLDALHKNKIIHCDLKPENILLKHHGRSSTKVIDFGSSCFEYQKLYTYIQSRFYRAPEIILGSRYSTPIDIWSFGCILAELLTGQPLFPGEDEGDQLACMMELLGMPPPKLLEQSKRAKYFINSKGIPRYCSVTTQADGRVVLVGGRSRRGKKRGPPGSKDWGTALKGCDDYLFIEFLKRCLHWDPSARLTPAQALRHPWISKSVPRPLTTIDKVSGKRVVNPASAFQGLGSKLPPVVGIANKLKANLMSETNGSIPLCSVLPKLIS
# Experiment: co-IP
substance,measurement,value
Sec23A (from UniProt Q15436 1-765),binding,binds
